Experimental data reported in article PMC10163288.
Some of the results follow.

B1: il2ra_site2_2erj_normal_mot_HHH_b2_08005_af2_000000017_0001_39_52_H_._HHH_b2_00725_0001_0000200028_0000001_0 (protein)
chain: SSSSSERLHEAFEAASRLMHLAYRGDEEEFERLFEEILEKVEEAGDEVLAEAIREVFHTLTSSSS
B2: il2ra_site2_3nfp_sap_9_mot_HHH_b1_07033_af2_000000007_0001_23_39_H_._b07f7a83e2292eca9764c844902b0b3e_0001_1_0001_0000600016_0000001_1_0001 (protein)
chain: PEELVEEIIELIERGDPRAEEAAMKLAHEAWERNDPELFFVAALLAAAVFDGDPRYLEEAERSLR
B3: il2ra_site2_2erj_normal_mot_HHH_b2_00494_000000216_0001_41_54_H_._HHH_b1_07802_af2_0001_0000300011_0000001_0 (protein)
chain: SSSSNEELRRLYELADEALRLITEGNPEEAEKVLEEARELAERLNSENAREVVEFLEELLESSSS
B4: il2ra_site2_2erj_sap_16_mot_HHH_b1_00941_000000051_0001_45_58_H_._HHH_b2_03323_0001_0000600045_0000001_0_0001_af2pred_0001_af2pred (protein)
chain: SSSSSSSREEVEELLEEAKRIEDLREVLRLLQEADKIAAENEDEELLREIEKVFEELVSSSSSSS
B5: il2ra_site1_3nfp_normal_mot_HHH_b1_07204_af2_000000238_0001_41_55_H_._HHH_b2_04441_0001_0000100003_0000001_0 (protein)
chain: SSSSTEELERLLELVEEAFRAAQEGDEELVEELLEEAKELAEKLGDKIALRLLEDIEEQLSSSSS
B6: il2ra_site2_3nfp_normal_mot_HHH_b1_05628_af2_000000064_0001_19_35_H_._HHH_b1_08457_0001_0000100003_0000001_1 (protein)
chain: SSSSDAEERVKELEEELREAEKEGDEELLEKLAFELFALASDLQDRRLAAFAAELFIKLKSSSSS
B7: il2ra_site1_3nfp_normal_mot_HHH_b2_04095_af2_000000160_0001_43_56_H_._HHH_b1_04304_0001_0000200029_0000001_1 (protein)
chain: SSSSSEEIREFQEIAREVLRLLREGDREEAEELIERLEELAREANSKAAERLVEQLKESASSSSS
B8: il2ra_site2_3nfp_normal_mot_HHH_b1_05627_af2_000000038_0001_43_56_H_._HHH_b1_04379_0001_0000600032_0000001_0 (protein)
chain: SSSSDKAEEYLEAALIALEEAIEEGNEEAVEELIRAIKLLAENANDEEIERLLEKLEEEFSSSSS
B9: il2ra_site2_2erj_sap_9_mot_HHH_b1_00071_af2_000000225_0001_40_56_H_._HHH_b1_00954_0001_0000200010_0000001_0_0001_1 (protein)
chain: SSSSLHELYELANAAAHAATLAVERGDPELYQRLWRLMKELLETGDPELFEELRELVEEIRSSSS
B10: il2ra_site1_1z92_sap_24_mot_HHH_b1_03199_000000116_0001_40_57_H_._HHH_b2_00739_af2_0001_0000100002_0000001_1_0001_af2pred_0001_af2pred (protein)
chain: SLAEEAVEDAKKHTPDPESIAKFLIKLLATIYQIPPEEAIEIAEEIAKELGDEELLKALEELKKK
B11: il2ra_site1_3nfp_sap_20_mot_HHH_b1_08723_000000044_0001_1_15_H_._HHH_b1_03120_af2_0001_0000500033_0000001_0_0001 (protein)
chain: SRTIELAIELARKQDEEMAELLEEVVRLYKEKGDPELKELLQEALHLIAKGDPEEAKKVLEEALK
B12: il2ra_site2_3nfp_normal_mot_HHH_b1_07242_000000112_0001_19_39_H_._ems_3hM_250_0001_0000200004_0000001_0 (protein)
chain: SNEELERYIEAALRLAKEAARDPRIQELIERVLEEFEEAKEKNDEHALSEVAQLALELAEEAAKS
B13: il2ra_site2_3nfp_sap_17_mot_HHH_b2_06150_000000217_0001_39_53_H_._HHH_b2_00252_0001_0001000040_0000001_0_0001 (protein)
chain: SSSSSDKREEYLRAVLAVAREAAKEDPELARKLAELLERAIKDAGDEELRELVEELLEELSSSSS
B14: il2ra_site2_3nfp_normal_mot_HHH_b1_00050_000000292_0001_22_38_H_._HHH_b1_03210_af2_0001_0000100002_0000001_0 (protein)
chain: SSSSNLSTRIFELLEILKELGDDRAVLRVYAIALEAYRKRDPELYEEAEQLAEKLIEELRSSSSS
B15: il2ra_site1_1z92_normal_mot_ems_4hC_799_0001_000000043_0001_18_33_H_._c6bbdfcc86d42384e443e22edc3665cc_0001_af2_0001_0000100003_0000001_0 (protein)
chain: SRQELQHLIEELREEGVPPEEIVKILLELVEKDAGDPRLALQFLKRLLKKLGDPELLRVLEELIK
B16: il2ra_site1_1z92_normal_mot_HHH_b1_02117_000000029_0001_1_15_H_._HHH_b2_01516_0001_0000400017_0000001_0 (protein)
chain: SSSSDLERAVRILLEIVEELLKNGNPESARNNLRFAERFAKENNDEELEEEIEEVRERVENSSSS
B17: il2ra_site2_3nfp_normal_mot_HHH_b1_03376_000000004_0001_41_55_H_._HHH_b1_05644_af2_0001_0000900045_0000001_0_af2pred_0001_1_af2pred_swapped (protein)
chain: SSSSSEEEREIKELLEEAQELLKNGNPEEAEKLVLEAALLAFEINNPELAFEAAELLLKIRSSSS
B18: il2ra_site2_3nfp_normal_mot_HHH_b1_05627_af2_000000038_0001_43_56_H_._HHH_b1_07789_af2_0001_0000700008_0000001_0 (protein)
chain: SSSSDKAEEYVRAAILAARAALEAGDPEAAKRHLEAAYLLAEARRNPLLEEVEELLEELRSSSSS
B19: il2ra_site2_2erj_sap_27_mot_35d2dc24e2c4431f89e6f806b163ecf8_0001_af2_000000103_0001_35_49_H_._dcd9809507f71d420582ead1f1e1bbb3_0001_0001_0000400018_0000001_1_0 … (protein)
chain: SSSSDEEERELEELIKRAEELLEQGNPEEALFVLFRAARIAFELGDEETAIKIARLAIEIRSSSS
B20: il2ra_site2_2erj_normal_mot_HHH_b1_01129_af2_000000281_0001_18_33_H_._HHH_b2_04351_0001_0000300029_0000001_0 (protein)
chain: SSSSSSDVEEEVERLLEEAKEISDLREVYRLLNEALRLAAERRDEELQELVLKVVEEHSSSSSSS
B21: il2ra_site1_2b5i_normal_mot_f5ff40796168375b462bec8614a1db4a_0001_1_000000138_0001_53_65_H_._HHH_b2_02299_0001_0000100002_0000001_0_af2pred_dldesign_0_af2pred (protein)
chain: SSSSSDPEELRELTLELLEEAKKIEDPKERLRLLRLARRVARKAGDAELIAEVEALLEELSSSSS
B22: il2ra_site2_3nfp_normal_mot_HHH_b2_04451_000000238_0001_21_37_H_._HHH_b2_04195_af2_0001_0000200011_0000001_0 (protein)
chain: SSSSSEEEEVRELLEQARELLERGDPYEALELLAEASEIAAKLNNEELARLILELFEKVQKSSSS
B23: il2ra_site2_2erj_normal_mot_5ab283b237ac2ed796690f09fe12d960_0001_000000016_0001_18_34_H_._HHH_b1_05687_0001_0000800035_0000001_0_af2pred_0001_1_af2pred_swapped (protein)
chain: SSSSDEEIEEIIERLVKEYNLSEEQEKRLRLAAELALEAGNDKNAIRRWLEALARFAAKGSSSSS
B24: il2ra_site1_3nfp_normal_mot_HHH_b2_00128_000000255_0001_39_54_H_._HHH_b2_00006_0001_0000300009_0000001_1_af2pred_0001_af2pred_1 (protein)
chain: SSSSDEEVRERVEELLEEAKRITDIREHSELLREALKLARELRDRELLELVERVAREAAKSSSSS

biological target: il2ra, P01589; experiment: yeast display titration

Apparent Kd, inactive:
B1 no binding seen
B2 no binding seen
B3 no binding seen
B4 no binding seen
B5 no binding seen
B6 no binding seen
B7 no binding seen
B8 no binding seen
B9 no binding seen
B10 no binding seen
B11 no binding seen
B12 no binding seen
B13 no binding seen
B14 no binding seen
B15 no binding seen
B16 no binding seen
B17 no binding seen
B18 no binding seen
B19 no binding seen
B20 no binding seen
B21 no binding seen
B22 no binding seen
B23 no binding seen
B24 no binding seen

Fetched one by one from the list above:
Apparent Kd, inactive:
B7 no binding seen
B16 no binding seen
